Values from PubChem BioAssay AID1259308 (NCATS, 2017)
The deposit covers about 59,000 reagents; this is a part drawn at random. Over the whole deposit, about 1,510 (2.6%) were called active. 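Calls use total luciferase alone and ignore viability, so some active siRNAs may act by altering cell number.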 Further read-outs or replicates are left out here. No sequences are given here.

- Purpose: 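Knock-downs that increase output of a recombinant reporter protein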 (primary screen)
- System: human HEK293 embryonic kidney cells stably expressing firefly luciferase (HEK-CMV-Luc2-Hygro)
- Reagent: single siRNA against human genes, 0.8 pmol siRNA per well
- Timing: 72 h
- Detection: 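Reporter luminescence and viable-cell signal on separate replicate plates, given as percent of non-targeting control and median/MAD z-scores, plus per-cell luciferase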
- Direction: total luciferase, z-score: higher = more reporter protein produced
- Active means: 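Active when the median/MAD z-score for overall luciferase is greater than 3; a gene was taken forward for validation with new siRNAs if at least two of its three siRNAs passed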
- Meaning of the calls: active = raised luciferase; inactive = no rise

{"Gene":"C1QL1","PubChem SID":"SID160729416","total luciferase, z-score":-0.248,"activity call":"inactive"}
{"Gene":"C1QL1","PubChem SID":"SID160729417","total luciferase, z-score":0.133,"activity call":"inactive"}
{"Gene":"C1QL1","PubChem SID":"SID160729418","total luciferase, z-score":3.46,"activity call":"active"}
{"Gene":"SPAG11B","PubChem SID":"SID160727878","total luciferase, z-score":-0.118,"activity call":"inactive"}
{"Gene":"SPAG11B","PubChem SID":"SID160727879","total luciferase, z-score":-0.495,"activity call":"inactive"}
{"Gene":"SPAG11B","PubChem SID":"SID160727880","total luciferase, z-score":-0.0222,"activity call":"inactive"}
{"Gene":"EPAS1","PubChem SID":"SID160760583","total luciferase, z-score":-0.166,"activity call":"inactive"}
{"Gene":"EPAS1","PubChem SID":"SID160760593","total luciferase, z-score":-1.45,"activity call":"inactive"}
{"Gene":"EPAS1","PubChem SID":"SID160760605","total luciferase, z-score":-0.297,"activity call":"inactive"}
{"Gene":"S100A2","PubChem SID":"SID160716280","total luciferase, z-score":1.73,"activity call":"inactive"}
{"Gene":"S100A2","PubChem SID":"SID160716281","total luciferase, z-score":-0.0536,"activity call":"inactive"}
{"Gene":"S100A2","PubChem SID":"SID160731679","total luciferase, z-score":-2.09,"activity call":"inactive"}
